Test results as given in the M2OR odorant receptor database.
Changes are numbered by the printed parent chain. The entries are a selection whose mix differs from that of the whole data set. Calls are pooled over several reports, among them a noisy single-well screen. This is one part of the list.

Chains of the proteins cited; added tags and fusions are not shown. Chains listed by the source or under a name are the forms on record and can include a tag or linker.
OR8B4, as listed by the source: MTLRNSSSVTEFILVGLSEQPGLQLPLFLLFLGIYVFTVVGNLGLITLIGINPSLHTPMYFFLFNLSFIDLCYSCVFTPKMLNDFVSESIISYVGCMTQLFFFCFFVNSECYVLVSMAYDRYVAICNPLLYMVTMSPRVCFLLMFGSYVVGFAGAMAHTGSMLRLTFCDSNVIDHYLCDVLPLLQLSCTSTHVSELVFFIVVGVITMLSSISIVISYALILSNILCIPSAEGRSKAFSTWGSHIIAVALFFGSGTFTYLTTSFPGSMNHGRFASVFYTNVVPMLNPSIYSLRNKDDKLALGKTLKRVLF
OR8B3, as listed by the source: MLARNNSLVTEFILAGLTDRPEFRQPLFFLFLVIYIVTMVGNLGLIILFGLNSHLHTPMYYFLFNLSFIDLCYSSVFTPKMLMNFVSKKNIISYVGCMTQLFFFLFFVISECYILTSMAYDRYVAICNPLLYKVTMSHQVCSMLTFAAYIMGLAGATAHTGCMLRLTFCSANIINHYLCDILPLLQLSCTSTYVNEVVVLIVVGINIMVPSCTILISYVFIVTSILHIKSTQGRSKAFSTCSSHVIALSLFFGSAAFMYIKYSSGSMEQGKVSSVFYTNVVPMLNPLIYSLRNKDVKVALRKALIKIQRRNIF

Columns and labels:
Conditions in all cases: stereoisomer not certain
OR8A1 = system: T1, OR8A1
T1 sequence (whole entry): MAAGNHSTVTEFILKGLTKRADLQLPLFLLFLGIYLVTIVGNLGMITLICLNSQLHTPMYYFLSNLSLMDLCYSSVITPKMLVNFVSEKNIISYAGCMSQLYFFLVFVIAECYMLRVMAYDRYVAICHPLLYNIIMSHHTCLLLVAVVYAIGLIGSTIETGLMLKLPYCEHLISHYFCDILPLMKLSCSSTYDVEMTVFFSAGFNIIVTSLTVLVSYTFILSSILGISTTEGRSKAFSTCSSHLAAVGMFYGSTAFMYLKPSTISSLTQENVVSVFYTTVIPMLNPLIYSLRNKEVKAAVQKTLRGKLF
In short: (§1)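 Whether a receptor–molecule pair is responsive (active) rests on the original authors' judgment that its measured signal was statistically different from baseline. Pairs without that judgment are non-responsive (inactive). Sources used varied assay methods, commonly transient luciferase assays in mammalian cell lines.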

OR8B12 (Homo sapiens) = target: T2, OR8B12 (Homo sapiens) (UniProt Q8NGG6)
T2 sequence (whole entry): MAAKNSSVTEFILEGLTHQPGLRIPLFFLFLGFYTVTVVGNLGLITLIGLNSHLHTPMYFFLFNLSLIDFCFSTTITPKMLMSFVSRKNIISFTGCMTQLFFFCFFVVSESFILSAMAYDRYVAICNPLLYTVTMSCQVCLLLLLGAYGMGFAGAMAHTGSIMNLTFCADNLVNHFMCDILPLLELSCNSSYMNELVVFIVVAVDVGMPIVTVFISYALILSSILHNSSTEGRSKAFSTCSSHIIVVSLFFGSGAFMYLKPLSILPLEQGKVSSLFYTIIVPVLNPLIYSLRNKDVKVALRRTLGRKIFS
In short: as §1

OR8B2 (Homo sapiens) = target: T3, OR8B2 (Homo sapiens) (UniProt Q96RD0)
T3 sequence (whole entry): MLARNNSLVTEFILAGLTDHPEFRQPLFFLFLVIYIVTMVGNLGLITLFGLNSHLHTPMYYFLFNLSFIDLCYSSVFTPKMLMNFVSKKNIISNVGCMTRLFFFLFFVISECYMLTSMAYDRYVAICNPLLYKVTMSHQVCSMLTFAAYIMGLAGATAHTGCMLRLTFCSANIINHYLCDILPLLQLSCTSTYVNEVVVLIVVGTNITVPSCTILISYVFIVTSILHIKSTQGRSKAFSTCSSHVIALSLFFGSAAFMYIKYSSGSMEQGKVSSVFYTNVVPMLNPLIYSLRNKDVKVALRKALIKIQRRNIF
In short: as §1

OR8B3 = system: T4, OR8B3
T4 sequence (whole entry): T3 sequence (whole entry) with H20R, T47I, N94Y, R100Q, M114I, T205I, T208M
In short: as §1

OR8B4 [1] = system: T5, OR8B4
T5 sequence (whole entry): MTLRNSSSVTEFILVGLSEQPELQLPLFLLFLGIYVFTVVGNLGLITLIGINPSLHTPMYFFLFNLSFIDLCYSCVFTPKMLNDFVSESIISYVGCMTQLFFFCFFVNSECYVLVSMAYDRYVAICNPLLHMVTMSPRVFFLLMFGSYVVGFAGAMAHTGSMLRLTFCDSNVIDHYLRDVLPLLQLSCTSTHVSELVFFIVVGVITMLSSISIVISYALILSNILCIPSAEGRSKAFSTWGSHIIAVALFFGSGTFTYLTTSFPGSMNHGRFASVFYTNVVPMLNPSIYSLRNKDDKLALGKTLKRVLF
In short: as §1

OR8B4 [2] = system: T6, OR8B4; remark: listed apart in the source
T6 sequence (whole entry): T5 sequence (whole entry) with E22G, H131Y, F140C, R178C
In short: as §1

OR8B8 (Homo sapiens) = target: T7, OR8B8 (Homo sapiens) (UniProt Q15620)
T7 sequence (whole entry): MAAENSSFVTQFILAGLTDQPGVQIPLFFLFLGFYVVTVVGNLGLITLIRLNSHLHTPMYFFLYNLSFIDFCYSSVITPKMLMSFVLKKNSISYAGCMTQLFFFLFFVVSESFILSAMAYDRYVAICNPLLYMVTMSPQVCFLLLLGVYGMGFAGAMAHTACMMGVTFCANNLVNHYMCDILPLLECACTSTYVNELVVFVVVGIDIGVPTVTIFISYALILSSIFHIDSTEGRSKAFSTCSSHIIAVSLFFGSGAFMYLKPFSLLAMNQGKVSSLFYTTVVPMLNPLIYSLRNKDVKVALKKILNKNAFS
In short: as §1

OR8B8 = system: T8, OR8B8
T8 sequence (whole entry): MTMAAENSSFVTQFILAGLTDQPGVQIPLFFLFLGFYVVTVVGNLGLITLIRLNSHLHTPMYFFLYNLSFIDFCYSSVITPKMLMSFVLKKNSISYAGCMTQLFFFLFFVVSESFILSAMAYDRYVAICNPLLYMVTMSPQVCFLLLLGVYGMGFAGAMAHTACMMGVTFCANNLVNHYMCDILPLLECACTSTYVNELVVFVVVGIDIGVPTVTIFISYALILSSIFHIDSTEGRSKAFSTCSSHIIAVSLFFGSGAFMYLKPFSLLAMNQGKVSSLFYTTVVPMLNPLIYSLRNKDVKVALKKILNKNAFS
In short: as §1

OR8D1 (Homo sapiens) = target: T9, OR8D1 (Homo sapiens) (UniProt Q8WZ84)
T9 sequence (whole entry): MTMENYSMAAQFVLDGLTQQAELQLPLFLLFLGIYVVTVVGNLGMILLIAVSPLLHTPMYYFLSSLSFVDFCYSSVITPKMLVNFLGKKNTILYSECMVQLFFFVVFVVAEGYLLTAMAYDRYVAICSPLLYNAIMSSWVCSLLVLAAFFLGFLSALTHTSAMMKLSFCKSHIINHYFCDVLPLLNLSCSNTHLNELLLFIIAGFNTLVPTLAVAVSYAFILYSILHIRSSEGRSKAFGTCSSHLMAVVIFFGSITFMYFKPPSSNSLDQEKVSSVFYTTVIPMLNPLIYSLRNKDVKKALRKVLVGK
In short: as §1

OR8D2 (Homo sapiens) = target: T10, OR8D2 (Homo sapiens) (UniProt Q9GZM6)
T10 sequence (whole entry): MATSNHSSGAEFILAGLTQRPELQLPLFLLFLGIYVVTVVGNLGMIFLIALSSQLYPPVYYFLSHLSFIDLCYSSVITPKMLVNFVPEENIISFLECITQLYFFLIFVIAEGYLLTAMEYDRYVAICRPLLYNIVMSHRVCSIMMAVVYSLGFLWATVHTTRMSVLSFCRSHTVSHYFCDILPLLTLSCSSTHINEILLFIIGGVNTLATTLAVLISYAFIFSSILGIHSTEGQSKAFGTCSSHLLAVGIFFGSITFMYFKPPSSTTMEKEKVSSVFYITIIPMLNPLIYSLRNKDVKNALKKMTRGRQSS
In short: as §1

OR8D4 = system: T11, OR8D4
T11 sequence (whole entry): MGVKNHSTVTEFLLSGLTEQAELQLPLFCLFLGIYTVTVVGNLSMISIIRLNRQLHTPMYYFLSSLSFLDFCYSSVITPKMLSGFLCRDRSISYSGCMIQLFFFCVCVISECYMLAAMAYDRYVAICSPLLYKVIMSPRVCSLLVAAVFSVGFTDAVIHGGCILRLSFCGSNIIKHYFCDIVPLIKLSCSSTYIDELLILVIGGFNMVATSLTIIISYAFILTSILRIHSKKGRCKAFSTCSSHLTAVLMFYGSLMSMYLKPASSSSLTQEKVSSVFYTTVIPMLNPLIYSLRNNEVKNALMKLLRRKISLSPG
In short: as §1

OR8G1 (Homo sapiens) = target: T12, OR8G1 (Homo sapiens) (UniProt Q15617)
T12 sequence (whole entry): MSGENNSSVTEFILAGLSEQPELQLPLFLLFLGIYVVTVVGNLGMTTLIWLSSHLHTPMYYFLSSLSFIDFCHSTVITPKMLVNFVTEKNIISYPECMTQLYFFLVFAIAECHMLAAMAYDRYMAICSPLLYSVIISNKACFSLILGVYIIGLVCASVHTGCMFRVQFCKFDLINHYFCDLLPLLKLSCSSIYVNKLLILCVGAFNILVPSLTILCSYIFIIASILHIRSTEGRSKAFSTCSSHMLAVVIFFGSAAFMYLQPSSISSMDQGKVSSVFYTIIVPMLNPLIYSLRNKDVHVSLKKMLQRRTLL
In short: as §1

OR8G5 (Homo sapiens) = target: T13, OR8G5 (Homo sapiens) (UniProt Q8NG78)
T13 sequence (whole entry): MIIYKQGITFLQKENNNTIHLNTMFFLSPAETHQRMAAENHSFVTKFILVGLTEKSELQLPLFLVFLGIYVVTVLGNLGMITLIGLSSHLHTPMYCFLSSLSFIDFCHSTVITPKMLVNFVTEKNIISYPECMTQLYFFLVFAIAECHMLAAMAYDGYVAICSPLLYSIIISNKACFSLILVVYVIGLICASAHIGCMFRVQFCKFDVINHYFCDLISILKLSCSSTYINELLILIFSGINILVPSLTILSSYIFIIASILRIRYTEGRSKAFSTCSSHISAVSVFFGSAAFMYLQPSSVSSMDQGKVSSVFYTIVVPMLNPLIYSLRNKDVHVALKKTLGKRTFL
In short: as §1

OR8G5 = system: T14, OR8G5
T14 sequence (whole entry): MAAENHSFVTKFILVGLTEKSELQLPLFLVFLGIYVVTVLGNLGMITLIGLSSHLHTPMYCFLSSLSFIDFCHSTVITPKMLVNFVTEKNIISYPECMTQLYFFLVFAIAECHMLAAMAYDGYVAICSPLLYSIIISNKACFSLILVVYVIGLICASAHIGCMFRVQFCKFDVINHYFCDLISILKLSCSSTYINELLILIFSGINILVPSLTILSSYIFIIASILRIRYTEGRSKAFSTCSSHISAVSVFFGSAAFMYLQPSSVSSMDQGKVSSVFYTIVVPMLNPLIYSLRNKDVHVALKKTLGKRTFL
In short: as §1

OR8H1 (Homo sapiens) = target: T15, OR8H1 (Homo sapiens) (UniProt Q8NGG4)
T15 sequence (whole entry): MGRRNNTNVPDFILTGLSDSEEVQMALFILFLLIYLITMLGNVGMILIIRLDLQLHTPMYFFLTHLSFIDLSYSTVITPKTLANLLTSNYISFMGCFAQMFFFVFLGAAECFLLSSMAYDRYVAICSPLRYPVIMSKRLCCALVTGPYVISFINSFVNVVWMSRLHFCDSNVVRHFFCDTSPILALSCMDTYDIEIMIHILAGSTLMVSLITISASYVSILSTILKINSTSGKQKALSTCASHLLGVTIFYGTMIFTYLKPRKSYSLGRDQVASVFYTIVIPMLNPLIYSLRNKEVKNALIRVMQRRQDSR
In short: as §1

OR8H2 = system: T16, OR8H2
T16 sequence (whole entry): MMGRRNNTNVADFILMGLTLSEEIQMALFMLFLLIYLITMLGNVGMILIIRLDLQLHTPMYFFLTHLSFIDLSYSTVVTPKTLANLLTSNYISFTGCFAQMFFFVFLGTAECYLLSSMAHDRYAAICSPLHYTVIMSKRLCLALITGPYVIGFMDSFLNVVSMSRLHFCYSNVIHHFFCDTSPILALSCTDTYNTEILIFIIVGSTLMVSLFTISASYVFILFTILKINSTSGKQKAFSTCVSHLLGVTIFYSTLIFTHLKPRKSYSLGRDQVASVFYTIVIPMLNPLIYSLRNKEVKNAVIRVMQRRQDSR
In short: as §1
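Also: active if original authors judged signal statistically different from baseline.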

SMILES | odorant receptor agonist call (OR8A1) | odorant receptor agonist call (OR8B12 (Homo sapiens)) | odorant receptor agonist call (OR8B2 (Homo sapiens)) | odorant receptor agonist call (OR8B3) | odorant receptor agonist call (OR8B4 [1]) | odorant receptor agonist call (OR8B4 [2]) | odorant receptor agonist call (OR8B8 (Homo sapiens)) | odorant receptor agonist call (OR8B8) | odorant receptor agonist call (OR8D1 (Homo sapiens)) | odorant receptor agonist call (OR8D2 (Homo sapiens)) | odorant receptor agonist call (OR8D4) | odorant receptor agonist call (OR8G1 (Homo sapiens)) | odorant receptor agonist call (OR8G5 (Homo sapiens)) | odorant receptor agonist call (OR8G5) | odorant receptor agonist call (OR8H1 (Homo sapiens)) | odorant receptor agonist call (OR8H2)
CC(C)CCC(=O)O | inactive | inactive | inactive | inactive | inactive | inactive | inactive | inactive | inactive | inactive | inactive | inactive | inactive | inactive | inactive | inactive
C=CC(C)(O)CCC=C(C)C (stereo not drawn) | inactive | inactive | inactive | inactive | inactive | inactive | inactive | inactive | inactive | inactive | inactive | inactive | inactive | inactive | inactive | inactive
CC(C)(O)CCCC1=CCC(C=O)CC1 (stereo not drawn) | – | inactive | inactive | inactive | – | – | – | – | – | – | – | – | – | – | – | –
COC(=O)c1ccccc1 | inactive | – | – | – | inactive | inactive | inactive | inactive | inactive | inactive | active | inactive | inactive | inactive | inactive | inactive
